According to PubChem BioAssay (EPA / NIEHS):
Inconclusive means that the source gave no clear call. Such entries were picked first, then a sample of the others. Potencies of inconclusive entries are doubtful fits and often do not repeat. The source made the active and inactive calls. The calls were made as follows: active = hit-call score of the fitted dose curve at least 0.9, where 1 is the maximum; inconclusive = response in the unintended direction; inactive = score below 0.9.

Sequences of proteins named here, by UniProt entry; tags and fusion partners are left off. A change or cut given only in a name is not applied to a line headed by its entry.
UniProt P13631, whole entry, looked up: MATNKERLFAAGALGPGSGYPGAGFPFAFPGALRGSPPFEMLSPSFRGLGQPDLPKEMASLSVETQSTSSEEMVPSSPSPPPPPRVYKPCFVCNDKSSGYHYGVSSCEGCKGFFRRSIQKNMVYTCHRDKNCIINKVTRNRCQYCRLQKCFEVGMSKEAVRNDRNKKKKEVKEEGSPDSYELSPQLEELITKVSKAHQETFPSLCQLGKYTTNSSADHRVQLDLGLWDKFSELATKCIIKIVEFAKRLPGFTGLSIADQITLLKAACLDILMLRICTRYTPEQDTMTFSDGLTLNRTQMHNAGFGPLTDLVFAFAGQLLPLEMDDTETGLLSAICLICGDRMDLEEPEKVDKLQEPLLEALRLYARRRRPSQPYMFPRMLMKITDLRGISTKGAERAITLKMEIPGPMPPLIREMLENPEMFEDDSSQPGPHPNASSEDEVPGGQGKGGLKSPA
UniProt Q92753: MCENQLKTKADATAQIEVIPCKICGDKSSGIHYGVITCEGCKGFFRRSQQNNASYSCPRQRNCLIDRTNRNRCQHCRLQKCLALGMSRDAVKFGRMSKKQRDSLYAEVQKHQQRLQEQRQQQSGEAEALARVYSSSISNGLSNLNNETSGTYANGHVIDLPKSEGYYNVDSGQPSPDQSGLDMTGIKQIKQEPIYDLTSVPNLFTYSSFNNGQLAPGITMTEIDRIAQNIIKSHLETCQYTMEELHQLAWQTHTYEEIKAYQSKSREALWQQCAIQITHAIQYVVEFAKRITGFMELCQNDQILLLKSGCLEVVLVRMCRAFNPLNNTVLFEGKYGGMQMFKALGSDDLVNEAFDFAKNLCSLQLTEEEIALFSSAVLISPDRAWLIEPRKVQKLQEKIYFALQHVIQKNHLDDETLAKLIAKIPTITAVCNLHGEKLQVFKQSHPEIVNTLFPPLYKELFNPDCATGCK

Target: human Retinoic Acid Receptor gamma (RARg), RARG (gene 5916) (UniProt P13631)
Assay: ATG_RARg_TRANS: Attagene TRANS-FACTORIAL HepG2 Assay for human Retinoic Acid Receptor gamma (RARg) (AID 2283009);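 as to AC50: AC50 is for reporter induction above DMSO meaning RARg activation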
Outline: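 Transient transfection of HepG2 with multi-reporter constructs, then 24 h chemical treatment. Total RNA isolated, reverse-transcribed, PCR-amplified, fluorescently labelled and resolved by capillary electrophoresis; activity scored as mRNA induction versus DMSO.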

Row | SMILES | AC50 | outcome
2 | CCCC(=O)OCCC(C)CCC=C(C)C (stereo unspecified) | inconclusive: 5.57 µM | –
3 | CC=CC(F)(F)C(F)(F)C(F)(F)F | inconclusive: 150 µM | –
5 | O=S(=O)(Oc1ccc(Cl)cc1Cl)c1ccccc1 | inconclusive: 181 µM | –
6 | CC(C)(C)CC(C)(C)c1ccc(OCCOCC[N+](C)(C)Cc2ccccc2)cc1 | inconclusive: 14.3 µM | –
7 | O=C1OC2(c3ccccc31)c1ccc(O)c(Br)c1Oc1c2ccc(O)c1Br | – | inactive
8 | C=CC(=O)O[C@H]1C[C@@H]2CC[C@@]1(C)C2(C)C | inconclusive: 5.52 µM | –
9 | CC(C)OC(=O)COc1ccc(Cl)cc1Cl | – | inactive
11 | CCC1CCCCC1 | – | inactive
13 | NC(=O)c1ccc([N+](=O)[O-])cc1Cl | inconclusive: 3.26 µM | –
15 | CCOC(=O)C(C#N)=C(c1ccccc1)c1ccccc1 | inconclusive: 0.718 µM | –
16 | O=C(O)c1cc(O)c2ccccc2c1O | – | inactive
18 | O=S(=O)(O)CCCN1CCOCC1 | inconclusive: 144 µM | –
20 | CS(=O)(=O)c1ccc(Cl)cc1 | inconclusive: 100 µM | –
21 | CC(C)(C)C1CCC(O)CC1 (stereo unspecified) | inconclusive: 100 µM | –
24 | CC(C)(C)c1ccc(O)c(O)c1 | – | inactive
25 | O=C1CCCC=CCCCCCCCCCC1 | inconclusive: 174 µM | –
26 | COCCc1ccc(OCC(O)CNC(C)C)cc1 (stereo unspecified) | inconclusive: 3.06 µM | –

2 entries drawn at random from those above, as already listed:
Row | SMILES | AC50 | outcome
11 | CCC1CCCCC1 | – | inactive
9 | CC(C)OC(=O)COc1ccc(Cl)cc1Cl | – | inactive

Target: human RAR-related Orphan Receptor beta (RORb), RORB (gene 6096) (UniProt Q92753)
Assay: ATG_RORb_TRANS: Attagene TRANS-FACTORIAL HepG2 Assay for human RAR-related Orphan Receptor beta (RORb) (AID 2283010);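 as to AC50: potency for increased reporter mRNA meaning activation of RORb-Gal4 chimera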
Outline: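 Readout is reporter-gene mRNA induction, detected as fluorescence after RT-PCR and capillary electrophoresis, fitted for gain of signal against DMSO controls. Transiently transfected HepG2 liver cells carrying GAL4-UAS reporter constructs were treated for 24 hours.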

Row | SMILES | AC50 | outcome
27 | CNNCc1ccc(C(=O)NC(C)C)cc1 | inconclusive: 172 µM | inactive
28 | Cc1ccc(C(=O)c2cc(O)c(O)c([N+](=O)[O-])c2)cc1 | inconclusive: 100 µM | –
29 | N#Cc1nc(Cl)c(Cl)c(Cl)c1Cl | – | inactive
30 | CC1=CC=C(C(C)C)CC1 | – | inactive
32 | CC1=C(CC(=O)O)c2cc(F)ccc2/C1=C\c1ccc(S(C)=O)cc1 (stereo unspecified) | – | inactive
33 | COc1cc(-c2nc(NC(=O)c3cc4cc(C)cc(C)c4n3CC(=O)O)sc2CCC2CCCCC2)c(OC)cc1Cl | inconclusive: 5.91 µM | –
34 | CC(CCl)OP(=O)(OC(C)CCl)OC(C)CCl (stereo unspecified) | inconclusive: 95 µM | –
35 | CC(C)(Oc1ccc(Cl)cc1)C(=O)O | inconclusive: 0.0823 µM | –
36 | COC(=O)c1c(Cl)nn(C)c1S(=O)(=O)NC(=O)Nc1nc(OC)cc(OC)n1 | – | inactive
37 | CC(C)(C)c1csc(-c2cc3cc(OCc4ccccc4CC(=O)O)ccc3o2)n1 | inconclusive: 8.9 µM | –
39 | COc1cc(OC)c2ccc(=O)oc2c1 | – | inactive
